# Measurements as given in PubChem BioAssay AID2685 (National Center for Advancing Translational Sciences (NCATS), 2010).
# The other results are listed elsewhere or left out. The main result of the screen is listed elsewhere. These columns were measured beside it and carry no call. Most of these compounds were active or inconclusive in the main read-out, so they are no random draw. The note in brackets gives the kind of curve behind each potency; many fits are weak.
# Experiment: qHTS Assay for Lipid Storage Modulators in Drosophila S3 Cells;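 for cell number change: cells counted by Cell Tracker Red CMTPX staining in the red channel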
# Details: BODIPY lipid droplet fluorescence, 18-24 h; for cell number change: measured here: cell count max response, cells fed with added oleic acid
# Procedure, shortened: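 Drosophila S3 cells got compounds at several concentrations plus oleic acid (400 uM solution). Laser-scanning cytometry with 488 nm excitation read lipid droplets at 500-530 nm and cells at 575-640 nm. Percent activity was relative to 20 uM Triacsin C.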
# [1] = measured here: cell number channel AC50, cells fed with added oleic acid
# [2] = measured here: lipid fluorescence (Fed channel) AC50, cells fed with added oleic acid
SMILES,cell number change [%],AC50 [1],AC50 [2]
Cn1c(=O)c(-[n+]2ccccc2)c([O-])c2ccccc21,-81.8,"23.1 µM [falling, partial curve]","0.206 µM [falling, full curve, poor fit]"
CCCCN1C(=O)C(O)(CC(=O)c2c(C)coc2C)c2ccccc21 (stereo not given),89.5,,
COc1ccc(N(C(=O)c2ccncc2)S(=O)(=O)c2ccc(OC)c(OC)c2)cc1,23.1,,
CC1CCc2c(nc3nc[nH]n3c2=O)C1 (stereo not given),7.27,,
CCOc1cc(/C=C(\C#N)C(=O)Nc2ccccn2)ccc1O,0.84,,
O=C(NC1CCCCC1)c1ccc(CNc2ccccc2)o1,30.5,"8.2 µM [rising, single point]",
COc1cc([N+](=O)[O-])ccc1NC(=O)NN1CCN(C)CC1,22.2,,"29.1 µM [falling, single point]"
O=C(/C=C/c1ccc(Cl)cc1)Nc1ccc(S(=O)(=O)Nc2ncccn2)cc1,11.9,,
O=C(NCCc1ccccc1)C1CCCN1C(=O)Nc1ccccc1 (stereo not given),-22,,"29.1 µM [rising, single point]"
Cn1c2ccccc2c(=O)c2cc(C#Cc3ccsc3)ccc21,3.24,,"20.6 µM [falling, single point]"
CCOc1ccccc1NC(=O)Cn1ncc2ccc([N+](=O)[O-])cc21,16.2,,"29.1 µM [rising, single point]"
COc1ccccc1NC(=O)c1coc(=O)c(Br)c1,10.9,"0.184 µM [falling, full curve]",
Cc1ccc(NC(=O)c2ccco2)cc1NC(=O)CSc1nnc(-c2cccs2)n1C,,,"0.461 µM [rising, full curve]"
CCN(CC)S(=O)(=O)c1cc(NC(=O)NCCCl)ccc1C,2.67,,
COc1ccc(S(=O)NC2CCCCC2)c(OC)c1C (stereo not given),-8.54,,"6.51 µM [falling, partial curve]"
CC(C)(C)NC(=O)COC(=O)c1c2c(nc3ccccc13)CCC2,-13.2,,"0.794 µM [rising, full curve, poor fit]"
Cc1cc(C(=O)NCc2cccs2)n(-c2ccccc2)n1,-13.5,,"29.1 µM [falling, single point]"
CCCn1c(SCC(=O)Nc2ccccc2Oc2ccccc2)n[nH]c1=O,95.1,"13 µM [rising, partial curve]",
COc1ccccc1CNC(=O)c1cc(C)nn1-c1ccccc1,21.3,,
CCCC(=O)Nc1ccc(C(=O)NNC(=S)NC(=O)c2cccs2)cc1,-8.33,,"29.1 µM [rising, single point]"
C=C1C(C(=O)N2CCN(C)CC2)C1C(=O)N1CCN(C)CC1 (stereo not given),2.33,,

SMILES,cell number change [%],AC50 [1],AC50 [2]
CCOc1ccccc1NC(=O)COc1cccc(-n2cnnn2)c1,9.91,"0.231 µM [rising, full curve, poor fit]","0.411 µM [rising, full curve, poor fit]"
O=C(Nc1ccc(F)cc1F)c1csc(-c2ccccc2)n1,-17,"0.0517 µM [falling, full curve, poor fit]","0.103 µM [falling, full curve, poor fit]"
O=C(c1cc(COc2ccc(F)cc2Cl)on1)N1CCc2sccc2C1,-4.25,"1.64 µM [rising, partial curve]",
CCCc1ccc(-c2csc(NC(=O)Cc3cccs3)n2)cc1,-51,"6.51 µM [falling, partial curve]","1.46 µM [falling, full curve]"
N#Cc1nc(-c2cccc3ccccc23)oc1NCC1CCCO1 (stereo not given),17,"1.84 µM [rising, partial curve]",
CC(C)(C)Cc1cc(N)on1,43.4,"29.1 µM [rising, single point]","16.4 µM [rising, single point]"
C=CCN1C(=O)C(C(C)CC)NC1=S (stereo not given),,,"0.58 µM [falling, full curve]"
CC1CCCCN1c1nc(-c2ccncc2)nc2ccccc12 (stereo not given),-38.1,"4.61 µM [falling, full curve, poor fit]",
C=CC[n+]1c(C)csc1Nc1cccc(Br)c1,,"2.31 µM [rising, single point]","6.51 µM [rising, single point]"
Cc1ccc2[nH]c3c(=O)n(CCN4CCNCC4)cnc3c2c1,33.8,"7.31 µM [rising, partial curve, poor fit]","18.4 µM [rising, partial curve, poor fit]"
CC(C)(C)c1ccc(C(=O)O/N=C(\N)c2ccccc2)cc1,-37.8,"25.9 µM [falling, single point]","23.1 µM [falling, single point]"
COc1ccc(/C=C2\SC(=S)N(CCC(=O)NCCCN3CCOCC3)C2=O)cc1,-2.63,,
Cc1cc(NC(=O)c2cc3ccccc3o2)ccc1NC(=O)c1ccccc1,-20.9,,
COc1cccc(CNC(=O)COc2cccc(-n3cnnn3)c2)c1,78.3,"23.1 µM [rising, partial curve]","29.1 µM [rising, single point]"
COc1ccccc1C(=O)COC(=O)c1ccc(N(C)C)cc1,74.2,"20.6 µM [rising, partial curve, poor fit]",
COc1ccccc1N(CN1CCCC1=O)C(=O)COc1ccccc1,18.7,,"25.9 µM [rising, single point]"
CC1CCCCC12NC(=O)N(CC(=O)N1CCN(C(=O)c3ccco3)CC1)C2=O (stereo not given),-6.33,,"3.66 µM [falling, partial curve, poor fit]"
Cc1ccc(CCNC(=O)c2nc(CS(=O)(=O)c3ccc(Cl)cc3)no2)cc1,-10.8,,"0.231 µM [rising, partial curve, poor fit]"
Oc1ccccc1/C=N/Nc1nc2ccccc2o1,-30.9,"2.59 µM [falling, full curve]","29.1 µM [falling, single point]"
CCn1c(Cn2nnc(-c3ccccc3)n2)nnc1SCc1ccc(Cl)c(Cl)c1,69.4,"6.51 µM [rising, full curve]","6.51 µM [rising, single point]"
Cc1cc(=O)n(CCCc2ccccc2)[nH]1,24.8,,"0.651 µM [rising, partial curve]"

SMILES,cell number change [%],AC50 [1],AC50 [2]
Cc1ccc(C23CC4CC(CC(C(=O)N(C)C)(C4)C2)C3)cc1,,"0.58 µM [falling, single point]","0.58 µM [falling, single point]"
O=C(Nc1ccc(N2C(=O)CCC2=O)cc1Cl)c1cccs1,5.43,,
c1ccc(-n2c(SCc3ccncc3)nnc2-c2ccco2)cc1,-13.3,,
O=C(Cn1nnc(-c2ccncc2)n1)N1CCc2ccccc21,3.05,,
N#CC1=C(N)OC2=C(C(=O)CC(c3ccccc3)C2)C1c1ccc2c(c1)OCO2 (stereo not given),12.2,,"0.411 µM [rising, full curve]"
COc1cccc(CNC(=O)c2ccc(S(=O)(=O)N3CCCC3)cc2)c1,-11.9,,"6.51 µM [falling, single point]"
CCN(CC)S(=O)(=O)c1ccc2oc(Nc3ccc(OC)cc3OC)nc2c1,12.4,,"0.231 µM [rising, full curve]"
COC(=O)[C@@H]1CC[C@H](C)[C@@H](c2ccc(C)cc2)N1C(=O)c1ccc(/C=N/OCC[C@@H]2C=C[C@H](OC(C)=O)[C@@H](COC(C)=O)O2)cc1,-7.05,,"14.6 µM [falling, single point]"
Cc1[nH]c2ccccc2c1C(=O)C(=O)NCCc1c[nH]c2ccccc12,-18.9,,"0.092 µM [rising, full curve, poor fit]"
CCc1nnc(NS(=O)(=O)c2ccc(NC(=S)NC(=O)c3ccc(OC)c(OC)c3)cc2)s1,-17.8,,"1.64 µM [falling, partial curve, poor fit]"
CCCn1c(CN2CCN(C(=O)OCC)CC2)nc2c1c(=O)n(C)c(=O)n2C,9.19,,"6.51 µM [falling, single point]"
CC1(C)CC(=O)C2=C(C1)N(C1CCCCC1)C(=O)C2(O)C(F)(F)F (stereo not given),6.64,,"1.46 µM [falling, full curve, poor fit]"
O=C(NCC1(N2CCCCC2)CCCCC1)c1cccc(NS(=O)(=O)c2ccccc2)c1,-50,"29.1 µM [falling, single point]",
Cc1cc(C)c(S(=O)(=O)NCc2ccc3c(c2)OCO3)cc1C,17.6,,
CCCCNC(=O)NNC(=O)COc1cc(C)cc(C)c1,-8.95,,"6.51 µM [falling, partial curve, poor fit]"
CCCN1CCN(C(=O)c2cccc3c2C(=O)N(CCOC)C3)CC1,-35.1,"6.51 µM [falling, partial curve]","6.51 µM [falling, single point]"
COCCNC(=O)COc1ccc(Br)cc1Cl,83.4,"14.6 µM [rising, partial curve]","2.31 µM [rising, partial curve, poor fit]"
CCSC1=C(C#N)C(c2ccc(C)o2)CC(=O)N1 (stereo not given),3.74,"2.31 µM [rising, single point]",
Cc1ccc(C(=O)OC(C)C(=O)Nc2ccc(Cl)cn2)s1 (stereo not given),-4.93,,"4.11 µM [rising, partial curve, poor fit]"
Cc1nc2ccc(C(=O)N3c4ccccc4CC3C)cc2s1 (stereo not given),117,"16.4 µM [rising, partial curve]",

# Random excerpt: two entries already listed, in no set order.
SMILES,cell number change [%],AC50 [1],AC50 [2]
O=C(/C=C/c1ccc(Cl)cc1)Nc1ccc(S(=O)(=O)Nc2ncccn2)cc1,11.9,,
Cc1ccc(C(=O)OC(C)C(=O)Nc2ccc(Cl)cn2)s1 (stereo not given),-4.93,,"4.11 µM [rising, partial curve, poor fit]"
